Screening data, single-dose tests

Protein sequences, listed by entry. Tags and fused reporters are not part of them. Residues count along the entry.
UniProt P9WFT3, whole entry: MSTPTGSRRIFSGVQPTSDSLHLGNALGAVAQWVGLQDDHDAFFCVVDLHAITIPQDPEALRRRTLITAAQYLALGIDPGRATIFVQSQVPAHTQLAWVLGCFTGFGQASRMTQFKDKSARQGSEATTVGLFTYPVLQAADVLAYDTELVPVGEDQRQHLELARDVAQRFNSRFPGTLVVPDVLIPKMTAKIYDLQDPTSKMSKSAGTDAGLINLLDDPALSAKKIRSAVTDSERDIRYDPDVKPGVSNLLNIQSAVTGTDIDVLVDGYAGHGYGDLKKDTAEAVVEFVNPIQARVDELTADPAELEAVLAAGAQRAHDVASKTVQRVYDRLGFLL
UniProt I6X8D2, whole entry: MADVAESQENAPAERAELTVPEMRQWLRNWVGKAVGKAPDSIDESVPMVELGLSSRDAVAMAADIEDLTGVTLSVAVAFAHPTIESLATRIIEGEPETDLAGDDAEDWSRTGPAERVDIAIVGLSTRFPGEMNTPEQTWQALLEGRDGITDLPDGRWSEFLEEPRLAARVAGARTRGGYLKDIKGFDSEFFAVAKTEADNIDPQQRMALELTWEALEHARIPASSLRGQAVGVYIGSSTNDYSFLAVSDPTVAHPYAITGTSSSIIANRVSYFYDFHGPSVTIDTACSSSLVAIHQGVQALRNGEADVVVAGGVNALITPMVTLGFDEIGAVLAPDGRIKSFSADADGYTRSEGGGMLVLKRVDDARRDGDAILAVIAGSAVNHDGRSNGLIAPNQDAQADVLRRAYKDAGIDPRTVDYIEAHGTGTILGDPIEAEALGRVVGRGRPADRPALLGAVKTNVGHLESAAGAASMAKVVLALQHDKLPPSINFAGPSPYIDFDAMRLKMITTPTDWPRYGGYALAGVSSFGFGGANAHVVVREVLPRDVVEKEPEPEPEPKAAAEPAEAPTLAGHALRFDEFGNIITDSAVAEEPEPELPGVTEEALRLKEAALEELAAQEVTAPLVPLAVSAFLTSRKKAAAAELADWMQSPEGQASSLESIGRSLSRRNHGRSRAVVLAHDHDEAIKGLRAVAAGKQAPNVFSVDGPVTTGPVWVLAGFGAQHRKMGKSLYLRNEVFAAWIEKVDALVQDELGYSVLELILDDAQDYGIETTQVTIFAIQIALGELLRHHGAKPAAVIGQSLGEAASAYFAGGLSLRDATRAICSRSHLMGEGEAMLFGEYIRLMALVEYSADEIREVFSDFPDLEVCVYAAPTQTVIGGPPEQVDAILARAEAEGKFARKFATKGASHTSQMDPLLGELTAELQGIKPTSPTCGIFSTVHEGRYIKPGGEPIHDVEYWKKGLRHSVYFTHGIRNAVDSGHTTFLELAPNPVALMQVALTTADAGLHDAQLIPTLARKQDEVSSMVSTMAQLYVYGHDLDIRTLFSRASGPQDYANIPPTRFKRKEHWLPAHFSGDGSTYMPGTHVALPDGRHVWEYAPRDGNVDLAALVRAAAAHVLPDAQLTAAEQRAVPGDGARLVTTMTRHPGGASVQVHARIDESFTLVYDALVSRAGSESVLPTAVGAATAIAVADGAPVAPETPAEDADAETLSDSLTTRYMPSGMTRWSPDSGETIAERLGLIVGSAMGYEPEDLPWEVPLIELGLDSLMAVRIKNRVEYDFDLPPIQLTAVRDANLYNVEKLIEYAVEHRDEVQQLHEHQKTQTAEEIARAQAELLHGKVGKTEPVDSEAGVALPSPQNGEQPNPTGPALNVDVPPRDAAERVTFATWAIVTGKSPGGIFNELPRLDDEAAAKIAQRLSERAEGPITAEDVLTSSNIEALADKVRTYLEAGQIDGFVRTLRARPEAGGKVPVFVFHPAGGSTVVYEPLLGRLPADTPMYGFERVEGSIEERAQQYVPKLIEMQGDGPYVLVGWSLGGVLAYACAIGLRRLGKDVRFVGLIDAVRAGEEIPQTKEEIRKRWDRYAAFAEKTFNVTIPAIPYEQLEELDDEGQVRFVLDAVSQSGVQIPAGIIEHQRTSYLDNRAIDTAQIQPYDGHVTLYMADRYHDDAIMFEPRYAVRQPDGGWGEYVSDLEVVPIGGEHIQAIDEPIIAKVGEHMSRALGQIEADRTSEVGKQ
UniProt A4I591, 1-473: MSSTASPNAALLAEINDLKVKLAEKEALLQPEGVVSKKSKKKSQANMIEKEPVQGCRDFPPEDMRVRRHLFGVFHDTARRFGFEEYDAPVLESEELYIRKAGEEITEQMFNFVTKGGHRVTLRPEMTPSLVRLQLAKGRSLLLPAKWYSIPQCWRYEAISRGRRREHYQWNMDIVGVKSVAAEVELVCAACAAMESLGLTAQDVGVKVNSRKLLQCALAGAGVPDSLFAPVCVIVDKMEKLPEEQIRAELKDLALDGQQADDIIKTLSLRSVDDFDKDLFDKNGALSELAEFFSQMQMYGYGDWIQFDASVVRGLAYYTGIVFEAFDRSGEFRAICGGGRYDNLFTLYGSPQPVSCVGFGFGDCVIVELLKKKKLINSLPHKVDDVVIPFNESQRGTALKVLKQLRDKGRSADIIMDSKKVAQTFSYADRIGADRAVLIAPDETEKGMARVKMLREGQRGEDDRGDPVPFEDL
UniProt Q8IDJ8, 1-583: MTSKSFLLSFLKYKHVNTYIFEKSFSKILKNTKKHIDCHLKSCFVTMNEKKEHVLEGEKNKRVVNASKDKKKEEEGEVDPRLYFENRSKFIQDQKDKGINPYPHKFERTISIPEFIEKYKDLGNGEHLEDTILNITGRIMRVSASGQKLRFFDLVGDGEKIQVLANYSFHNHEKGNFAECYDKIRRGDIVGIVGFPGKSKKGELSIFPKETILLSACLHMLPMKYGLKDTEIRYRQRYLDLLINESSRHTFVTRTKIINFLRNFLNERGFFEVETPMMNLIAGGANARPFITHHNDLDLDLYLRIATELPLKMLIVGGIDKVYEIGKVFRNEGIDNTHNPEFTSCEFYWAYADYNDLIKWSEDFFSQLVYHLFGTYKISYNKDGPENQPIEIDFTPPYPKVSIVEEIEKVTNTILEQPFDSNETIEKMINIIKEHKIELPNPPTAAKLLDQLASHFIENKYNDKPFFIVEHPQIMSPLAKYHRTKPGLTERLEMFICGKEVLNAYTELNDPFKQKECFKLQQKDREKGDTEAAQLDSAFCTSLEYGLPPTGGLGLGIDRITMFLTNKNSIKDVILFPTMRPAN

A: 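Enzyme assay of tryptophanyl-tRNA synthetase; the read-out is not stated. Target: Tryptophan-tRNA ligase, Mycobacterium tuberculosis (UniProt P9WFT3). Compounds at 10 µM. Higher most likely means stronger inhibition; the record gives no direction and few retests gave an IC50. Size under these conditions: about 65,000 compounds, about 64 of them at 50% or above in at least one test.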
B: 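Enzyme assay of the thioesterase domain of polyketide synthase 13; the read-out is not stated. Target: Polyketide synthase Pks13, Mycobacterium tuberculosis (UniProt I6X8D2). Concentration: 30 µM. The record gives no direction; the compounds picked for IC50 retests had high values, so higher reads as stronger inhibition. Size under these conditions: about 67,000 compounds, about 300 of them at 50% or above in at least one test.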
C: 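Histidine-tRNA ligase, Leishmania infantum (UniProt A4I591). Enzyme assay of histidyl-tRNA synthetase; the read-out is not stated. Compounds at 30 µM. Direction is inferred from retests: higher values go with stronger inhibition. The assay is labelled LdHisRS but filed under L. infantum. Of about 69,000 compounds tested this way, about 410 (0.6%) reached 50% or more in at least one test.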
D: 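Lysine-tRNA ligase, Plasmodium falciparum 3D7 (UniProt Q8IDJ8). Enzyme assay of the cytosolic lysyl-tRNA synthetase in 384-well plates, read by luminescence. Concentration: 30 µM. Higher reads as stronger inhibition, judged from the few compounds that gave an IC50. Size under these conditions: about 69,000 compounds, about 49 of them at 50% or above in at least one test.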

Each number is a percent effect as filed.
The record does not define 0% and 100%; most values in the screen are far below 50% and negative numbers occur (in some assays of this library far below -100).
This is an unselected part of the compounds tested.
A dash means the value is not listed here; it may have been measured.

With O=S(=O)(c1ccc2c(c1)OCCO2)N1CCc2ccccc2C1 the screen gave A: 8.144%; B: 9.263%; C: -4.196%; D: 1.514%. Result for Cc1ccc(NC2CCN(C(=O)COC3CCCCC3)CC2)nn1 was A: 13.39%; B: -21.6%; C: -1.754%; D: 0.1653%. With Cn1ccnc1CCNS(=O)(=O)c1ccc(Br)cc1 the screen gave A: -4.642%; B: -2.683%; C: 0%; D: 1.169%. Result for CC(=O)NC[C@@]1(COc2cnccn2)C[C@@H](O)[C@@H](O)C1 was A: -4.195%; B: -8.577%; C: 2.703%; D: 2.204%. Result for Cc1n[nH]c(C)c1CCc1n[nH]c(=O)n1Cc1cccs1 was A: 0.08937%; B: 0.3127%; C: 6.667%; D: 3.89%. Result for O=C(c1cccs1)N1C[C@H]2CCC[C@@]2(COCC2CCOCC2)C1 was A: 3.591%; B: -14.64%; C: 19.27%; D: -5.875%.

c1cnc(N2CCO[C@H]3CN(CC4CC4)C[C@H]32)nc1 gave A: -10.62%; B: -11.11%; C: 6.944%; D: -0.4862%. Result for Cc1ccc(N2CCC(c3[nH]ncc3Cc3ccccc3)CC2)nn1 was A: 11.8%; B: -38.3%; C: 21.67%; D: -0.5207%. O=C(O)[C@@H]1CN(Cc2cc3c(cc2Cl)OCO3)C[C@H]1C1CC1 gave A: -2.75%; B: -8.537%; C: 12.5%; D: 8.395%. CC(C)c1nc(CCN(C)c2nccc(N3CCCC(O)C3)n2)no1 (centres undefined) read A: 2.819%; B: -11.14%; C: 9.79%; D: 2.329%. With Cc1ncc(CN2Cc3ccccc3O[C@]3(CC[C@H](CO)CC3)C2)cn1 the screen gave A: 1.087%; B: -31.7%; C: 11.11%; D: 3.514%. For COC(=O)c1cccc(NS(=O)(=O)c2cnc(NC(C)=O)s2)c1 the result was A: -3.417%; B: -23.23%; C: 13.59%; D: 4.63%.

Result for Cc1cc(NC(=O)Cc2ccccc2O)c[nH]c1=O was A: -3.44%; B: -0.06329%; C: 21.13%; D: 7.59%. With CC1=C(C#N)C(=O)NC(=O)/C1=C\c1c(C)nn(-c2ccc(Cl)cc2)c1O the screen gave B: 24.96%; C: 51.55%; D: 4.351%. CCS(=O)(=O)N1CCCC2(COCCN(c3ccccn3)C2)C1 (centres undefined) gave A: 1.383%; B: 0.3279%; C: 20.51%; D: 5.509%. With COc1cccc(C2CCCN2Cc2nc3c(cnn3C)c(=O)[nH]2)c1 (centres undefined) the screen gave A: 4.327%; B: -31%; C: 5.618%; D: 10.44%. CN1C(=O)C[C@H]2[C@H]1CCN2Cc1cccc(C#N)c1 read A: -2.658%; B: -6.988%; C: 26%; D: 1.254%. Result for Cc1ccc(C)c2c(O)cc(CNCC(N)=O)nc12 was A: -0.07468%; B: -0.8145%; C: 15.08%; D: 2.157%.

With CCNC(=O)CCCC(=O)N1CCc2cc(Cl)cc(Cl)c2C1 the screen gave A: -0.1937%; B: -35.08%; C: 12.94%; D: 6.51%. CCN(CC)C(=O)c1nc2c(s1)CCN(C(=O)CCC(=O)OC)CC2 gave A: -5.717%; B: 2.218%; C: 13.79%; D: 11.5%. With Cn1cccc1C(=O)N1C[C@H]2CC[C@@H]1CN(Cc1cscn1)C2 the screen gave A: 0.2472%; B: -21.48%; C: 23.38%; D: 5.966%. With CCN(C(=O)NCc1ccccc1OC(F)F)C(C)c1cccnc1 (centres undefined) the screen gave A: -2.484%; B: -9.714%; C: 3.226%; D: -1.862%. CCC(CC)N(Cc1ccc2c(c1)OCO2)C(=O)c1ccc(=O)n(C)c1 gave A: -2.031%; B: -67.72%; C: 5.333%; D: 4.966%. O=C(CCn1cc(Cl)cn1)N1CCCC(O)(CO)CC1 (centres undefined) gave A: 0.2681%; B: 2.559%; C: 22.67%; D: 2.298%.

Result for O=C(c1cccnc1)N1CCC2(CC1)COCCN(c1ncccn1)C2 was A: 1.802%; B: -5.141%; C: 20.97%; D: 3.624%. CN(C)c1cc(C2CCCN(S(=O)(=O)C3CCCC3)C2)ccn1 (centres undefined) read A: -4.235%; B: -5.531%; C: 6.207%; D: 0.8813%. With COc1ccc(C)cc1-n1c(COC(C)C)n[nH]c1=O the screen gave A: -7.209%; C: 5.128%; D: 1.902%. CCOc1ncccc1C(=O)N1CC=C(c2ccc(O)cc2)CC1 gave A: 0.2329%; B: -31.49%; C: 11.43%; D: 5.169%. With O=C(Nc1nncs1)N1CCC(c2ccc(O)cc2)CC1 the screen gave A: 2.022%; B: -2.182%; C: 22.83%; D: 1.747%.

Some entries from above, unchanged:

| compound | A | B | C | D |
|---|---|---|---|---|
| `CN(C)c1cc(C2CCCN(S(=O)(=O)C3CCCC3)C2)ccn1` (centres undefined) | -4.235 | -5.531 | 6.207 | 0.8813 |
| `COc1ccc(C)cc1-n1c(COC(C)C)n[nH]c1=O` | -7.209 | - | 5.128 | 1.902 |
| `Cc1ccc(NC2CCN(C(=O)COC3CCCCC3)CC2)nn1` | 13.39 | -21.6 | -1.754 | 0.1653 |

Source: ChEMBL document CHEMBL3988442, “University of Dundee, Small-Polar-MMV Screening Library” (2021).